Patent US20130273046A1
No constants are given. Whether binding was seen depends on the method and setting. Some entries that bind do so weakly or less than the wild type. Sequences can lack the tags named with a protein.

Biological target: T1, EDAR-GPI proteins (portions of human EDAR fused to the C-terminal portion of TRAIL-R3 with its GPI-addition sequence) on 293T cells (human) (UniProt O14798)
T1 sequence (chain, glycosylphosphatidylinositol (GPI) anchor at the C-terminus): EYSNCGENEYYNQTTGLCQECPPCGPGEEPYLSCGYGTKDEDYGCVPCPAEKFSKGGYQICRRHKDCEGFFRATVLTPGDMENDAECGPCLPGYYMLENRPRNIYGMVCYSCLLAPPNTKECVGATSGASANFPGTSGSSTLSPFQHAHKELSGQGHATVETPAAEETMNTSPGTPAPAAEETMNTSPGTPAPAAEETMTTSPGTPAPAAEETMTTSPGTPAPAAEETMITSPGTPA
Experiment: FACS on transfected 293T cells (FIG. 11)

binding: binds
B1: mAbEDAR2 (antibody, IgG1, V domains shown)
VH: QVQLQQPGAELVKPGASVKLSCKASGYTFTSYWMQWVKQRPGQGIEWIGEIDPSDSYTYYNQKFKGKATLTIDKSSSTAYMQLSSLTSEDSAVYYCSRKNYYRGMDYWGQGTSVTVSS
VL: DVLMTQTPLSLPVSLGDQASISCRSSQNIVQSNGNTYLEWYLQKPGQSPKLLIYKVSNRFSGVPDRFSGSGSGTDFTLKISRVEADDLGVYYCFQVSHVPYTFGGGTKLEIKR
